Reference: paper PMC10363799
These are yes or no findings as the source states them, for the method shown. In cells and extracts the contact can be indirect. Some binding calls cover weakened binding; strength is not graded here.

The chains behind the UniProt entries cited, without tags or fusion partners.
UniProt P45974: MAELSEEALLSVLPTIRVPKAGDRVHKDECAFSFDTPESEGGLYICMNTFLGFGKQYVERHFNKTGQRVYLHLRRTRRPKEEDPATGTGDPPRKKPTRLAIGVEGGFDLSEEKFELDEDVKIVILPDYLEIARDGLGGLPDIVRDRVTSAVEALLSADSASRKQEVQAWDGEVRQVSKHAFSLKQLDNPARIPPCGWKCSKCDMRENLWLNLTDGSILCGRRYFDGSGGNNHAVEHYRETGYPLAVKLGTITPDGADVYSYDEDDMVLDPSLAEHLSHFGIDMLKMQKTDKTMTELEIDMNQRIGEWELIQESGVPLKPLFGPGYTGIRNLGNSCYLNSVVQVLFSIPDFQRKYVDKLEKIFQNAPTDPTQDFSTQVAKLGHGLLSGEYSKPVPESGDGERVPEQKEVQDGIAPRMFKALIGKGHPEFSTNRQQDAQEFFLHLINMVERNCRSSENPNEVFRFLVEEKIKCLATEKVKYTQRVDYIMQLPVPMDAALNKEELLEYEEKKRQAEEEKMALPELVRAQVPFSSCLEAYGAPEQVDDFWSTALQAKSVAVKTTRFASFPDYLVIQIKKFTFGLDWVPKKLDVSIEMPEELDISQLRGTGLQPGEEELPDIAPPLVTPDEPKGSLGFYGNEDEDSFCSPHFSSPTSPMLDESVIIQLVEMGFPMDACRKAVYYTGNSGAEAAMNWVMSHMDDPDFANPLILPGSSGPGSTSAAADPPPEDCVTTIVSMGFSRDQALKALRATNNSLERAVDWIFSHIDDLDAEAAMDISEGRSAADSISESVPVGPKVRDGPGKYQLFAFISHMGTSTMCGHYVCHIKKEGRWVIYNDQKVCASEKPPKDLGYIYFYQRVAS

Key:
[1] = molecular target: T1, Lymphoid-specific helicase (LSH), endogenous in HepG2 cells (human (endogenous in HepG2)) (UniProt Q9NRZ9); assay: co-IP; endogenous proteins, HepG2 lysate in IP buffer with protease inhibitors, antibody overnight at 4°C, Dynabeads Protein G, immunoblot with anti-USP5 or anti-LSH
T1 sequence: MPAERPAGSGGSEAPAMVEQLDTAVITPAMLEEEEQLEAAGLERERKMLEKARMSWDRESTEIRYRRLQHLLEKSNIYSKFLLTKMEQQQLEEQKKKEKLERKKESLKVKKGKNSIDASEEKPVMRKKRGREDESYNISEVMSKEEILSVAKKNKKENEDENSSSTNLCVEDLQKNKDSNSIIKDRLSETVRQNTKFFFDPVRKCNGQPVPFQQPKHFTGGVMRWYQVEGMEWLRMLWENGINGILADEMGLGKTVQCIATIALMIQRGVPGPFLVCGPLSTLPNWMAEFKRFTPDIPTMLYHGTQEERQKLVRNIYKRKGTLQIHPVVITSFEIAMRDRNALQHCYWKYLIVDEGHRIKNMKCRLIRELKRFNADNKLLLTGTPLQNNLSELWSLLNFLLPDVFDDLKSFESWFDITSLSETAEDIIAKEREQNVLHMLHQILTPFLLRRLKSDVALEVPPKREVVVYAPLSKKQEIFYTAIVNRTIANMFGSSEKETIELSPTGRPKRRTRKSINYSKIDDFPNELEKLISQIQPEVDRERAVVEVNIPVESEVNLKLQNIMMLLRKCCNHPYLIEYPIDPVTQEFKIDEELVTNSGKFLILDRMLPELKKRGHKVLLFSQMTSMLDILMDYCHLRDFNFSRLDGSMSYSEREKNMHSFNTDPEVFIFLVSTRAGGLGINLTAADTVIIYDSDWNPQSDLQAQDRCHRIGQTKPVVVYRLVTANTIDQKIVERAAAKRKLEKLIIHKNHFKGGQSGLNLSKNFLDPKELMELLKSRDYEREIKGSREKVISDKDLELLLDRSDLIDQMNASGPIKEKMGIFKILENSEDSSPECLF

[2] = molecular target: T2, Lymphoid-specific helicase (LSH), exogenous in 293T cells (UniProt Q9NRZ9); assay: co-IP; exogenous proteins in 293T cells, lysate in IP buffer with protease inhibitors, antibody overnight at 4°C, Dynabeads Protein G, immunoblot with anti-USP5 or anti-LSH
T2 sequence: T1 sequence

Substance | binding [1] | binding [2]
Ubiquitin-specific protease 5 (USP5), endogenous in HepG2 cells (from UniProt P45974 1-858) (enzyme) | binds | –
Ubiquitin-specific protease 5 (USP5), exogenous in 293T cells (from UniProt P45974 1-858) (enzyme) | – | binds
